# In the supplement of paper PMC12889115:
# Some of the results follow. These are raw signals, not scaled to a control.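 In the initial screen, polymyxin B was used at a concentration that permeabilizes Salmonella's outer membrane but not its inner membrane. Maximum growth was set by DMSO wells with or without polymyxin B. Since plates varied, data were ranked per plate, and compounds giving the lowest OD600 advanced as hits.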
# Test system: Salmonella enterica serovar Typhimurium SL1344
# Test: bacterial growth OD600 after 18 h with compound and polymyxin B; higher = more bacterial growth (less inhibition)
# Conditions: 50 µM, Mueller-Hinton broth
SMILES,bacterial growth OD600 (polymyxin B 1 µg/mL),bacterial growth OD600 (polymyxin B 0.75 µg/mL)
Cc1cc(C(=O)N2CCCC(CNC(=O)c3cc4ccccc4[nH]3)C2)nc(C)n1 (stereo not given),1.05,–
COc1ccc(CCc2nnc(CCC(=O)NCc3ccccc3F)o2)cc1,0.961,–
CCNC(=O)c1cn(CCc2ccccc2)cc(C(=O)N2CCN(c3ccc(OC)cc3)CC2)c1=O,–,0.77
COc1ccccc1-c1ccnc(-n2ncc(C(=O)N3CCN(C(C)C)CC3)c2C2CC2)n1,–,0.812
COCC(=O)Nc1cc(C(=O)N(C)Cc2ccc3nccnc3c2)cc2nc(-c3ccccc3)n(C)c12,–,0.829
CC(O)CNc1ccc(-c2nc(-c3cccc(C(F)(F)F)c3)no2)cn1 (stereo not given),–,0.021
c1ccc(CCCc2noc(-c3ccc(N4CCCO4)nc3)n2)cc1,–,0.001
COc1cccc(CCC2CCCN(C(=O)CCN3CCCCC3=O)C2)c1 (stereo not given),–,0.838
O=C(c1ccsc1)N1CCC2(CCCN(Cc3ccccc3F)C2=O)C1 (stereo not given),0.959,–
Cn1c(C2CCC2)nc2cc(C(=O)N3CCN(c4ccccn4)CC3)cc(NC(=O)C3CCCO3)c21 (stereo not given),–,0.9
CC(=O)Nc1ccc(CN2CCCC(N3CCN(c4ccccc4)CC3)C2)cc1 (stereo not given),1.08,–
CCOC(=O)C1(Cc2ccccc2F)CCCN(C(=O)CCOC)C1 (stereo not given),0.866,–
COc1ccc(NC(=O)CCC2CCCN(CCCn3cccn3)C2)c(C)c1 (stereo not given),–,0.862
CC1(C)CC(C(=O)N2CCOc3c(cc(-c4cccnc4)cc3OCCc3cccs3)C2)CCO1 (stereo not given),–,0.72
O=C(Nc1cnn(-c2ccc(C(=O)N3C[C@@H]4C[C@H](C3)c3cccc(=O)n3C4)cc2)c1)c1ccoc1,–,0.855
CCc1ocnc1C(=O)N1CCC(C2CCN(c3ncccn3)CC2)C1 (stereo not given),–,0.884
COc1cccc(CNC(=O)CCC2CCCN(c3cc(C)nc(N)n3)C2)c1 (stereo not given),–,0.766
COc1ccc(-n2cc(CNCC3CC(=O)N(C4CC4)C3)c(-c3ccccc3Cl)n2)cc1 (stereo not given),0.917,–
c1ccc(COC2CCCN(c3nc4nonc4nc3N3CCCC3)C2)nc1 (stereo not given),–,0.778
CCN(CC1CCCN(CCc2cccc(F)c2)C1)C(=O)c1ccnc(Cl)c1 (stereo not given),0.987,–

# Copied from the listing for reference:
SMILES,bacterial growth OD600 (polymyxin B 1 µg/mL),bacterial growth OD600 (polymyxin B 0.75 µg/mL)
COc1cccc(CNC(=O)CCC2CCCN(c3cc(C)nc(N)n3)C2)c1 (stereo not given),–,0.766
COc1ccc(-n2cc(CNCC3CC(=O)N(C4CC4)C3)c(-c3ccccc3Cl)n2)cc1 (stereo not given),0.917,–
